Several values for one entry are separate records, joined by “and”; a condition that tells them apart may be missing. Equal values may be shown once. The list shows a part of the results.
Assay: qHTS assay for small molecule antagonists of retinoid X receptor alpha signaling (AID 588546)
Settings: HEK293T RXRa-UAS-bla, beta-lactamase ratio, antagonist mode; measured here: W530 green channel, cytotoxicity proxy
Source text: NIH Chemical Genomics Center [NCGC] U.S. Environmental Protection Agency [EPA] National Institutes of Environmental Health Sciences [NIEHS] National Toxicology Program [NTP] NCGC Assay Overview The Retinoid X receptor (RXR), a nuclear hormone receptor is expressed in liver, spleen, placenta, epidermis, central nervous system. These receptors are able to form homo and heterodimers with other nuclear receptors and due to this heterodimerizing ability, RXR functions as master regulators producing diverse physiological effects. Three subtypes of RXR exist; alpha, beta and gamma. Retinoid X receptor alpha (RXR-alpha) has potential roles in metabolic signaling pathways, skin alopecia, dermal cysts, cardiac development, insulin sensitization etc. Therefore screening environmental chemicals on RXR-alpha signaling can be used for the studies focused on such therapeutic applications.
NCGC Assay Protocol Summary Using a beta-lactamase reporter-gene under control of Retinoid X receptor--alpha (RXR-alpha) response element, a cell-based assay [GeneBLAzer (RXR-alpha -UAS-bla assay developed by Invitrogen] was used to measure RXR-alpha ligands signaling. GeneBLAzer RXR-alpha -UAS-bla HEK293T cells were used with assay medium containing 2% charcoal-stripped FBS. The assay was performed in clear bottom black Greiner 1536-well plates. Library compounds were measured for their ability to inhibit the reporter gene activity. Compounds were screened in a titration series in 1536-well format. The fluorescence intensity (405 nm excitation, 460/530 nm emission) was measured using an EnVision plate reader. Data was normalized relative to 9-cis-retinoic acid control (500 nM, 100%), and DMSO only wells (basal, 0%). Concentration-response titration points for each compound were fitted to the Hill equation yielding concentrations of half-maximal inhibition (IC50) and maximal response (efficacy) values. qHTS protocol for RXR-alpha beta-lactamase assay in antagonist mode [Step] [Parameter] [Value] [Description] 1. Reagent; 5 uL; 2500 cells/well 2. Incubation; 37 C for 4 hrs 3. Compounds; 23 nL; 0.59 nM to 92 uM 4. Controls (DMSO); 23 nL 5. Agonist (Stimulator); 1uL; 9-cis-retinoic acid at 500 nM and 100 nM final concentrations 6. Incubation; 37 C for 18 hrs 7. Detection reagent; 1 uL of CCF4-dye 8. Incubation; RT for 2 hrs 9. Detection; Fluorescence; Envision plate reader
% is set by controls: 0 for no effect and ±100 for the full control effect.

Structure (SMILES)	max response
Cc1c([N+](=O)[O-])cccc1[N+](=O)[O-]	-11.4% and -5.71%
CCOP(=S)(CC)Oc1cc(Cl)c(Cl)cc1Cl (centres undefined)	-20.2%
O=[N+]([O-])[O-].[NH4+]	-2.85%
CCC(C)(OO)OOC(C)(CC)OO (centres undefined)	-5.79% and -7.53%
O=C1C2CC=CCC2C(=O)N1SC(Cl)(Cl)C(Cl)Cl (centres undefined)	-16%
CCOP(=O)(CC)OCC	-0.685%
CN(N=O)C(=N)N[N+](=O)[O-]	-3.92%
ClP(Cl)c1ccccc1	-22.5%
NC(=O)Nc1ccc([As](=O)(O)O)cc1	-4.65%
O=[N+]([O-])c1ccc([N+](=O)[O-])cc1	7.9%
Cc1cccc([N+](=O)[O-])c1[N+](=O)[O-]	-0.883% and -11.6%
Cc1ccc([N+](=O)[O-])c([N+](=O)[O-])c1	7.33% and 17.7%
[NH4+].[O-][Cl+3]([O-])([O-])[O-]	4.58%
O=[N+]([O-])c1cccc([N+](=O)[O-])c1	-2.04% and -20.3%
CC(C)OP(=S)(OC(C)C)SCCNS(=O)(=O)c1ccccc1	11.4%
CC(C)OP(=O)(OC(C)C)SCCNS(=O)(=O)c1ccccc1	-6.67%
Cc1cc([N+](=O)[O-])cc([N+](=O)[O-])c1O	-9.4% and 4.83%
COP(=S)(Cl)OC	-19.3%
Cc1ccc([N+](=O)[O-])cc1[N+](=O)[O-]	-10.5% and -10.2%

— PubChem BioAssay (NCATS)
